Some of the results follow. Many values rest on one well or one pass, so single values are uncertain.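 Imaging used 1,536-well plates; nuclei positive for cleaved PARP by antibody were divided by total DNA-stained nuclei to yield the apoptosis fraction. Doses for screening kept most cells viable, and cell lines differ markedly in resting and induced cleaved-PARP levels.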

Test systems include MZ2-MEL; MeWo; RPMI7951; RVH-421; SkMel28; SkMel2; SkMel30; SkMel5; UACC257; UACC62; WM115; WM1716; WM1745; WM3526; WM3619; WM451Lu.
Holding throughout (assay): cleaved PARP positive nuclei fraction relative to DMSO control; melanoma cells; higher = more apoptosis
Settings in all cases: library dose: low library concentration; 72 h

For `CCCCCCCCCCCCCCCCCCOP(=O)([O-])OC1CC[N+](C)(C)CC1` [Perifosine] + C[C@@H]1CCN(C(=O)CC#N)C[C@@H]1N(C)c1ncnc2[nH]ccc12 [CP690550] (first compound 0.4 µM, partner dose 1 µM), the “cleaved PARP positive nuclei fraction” value stood at 147% with MZ2-MEL; 34.3% with MeWo; 647% in the assay on RPMI7951; 230% in the assay with RVH-421; 116% in the assay on SkMel28; 68.6% in the assay on SkMel2. Also, the “cleaved PARP positive nuclei fraction” value was found to be 53.8% in the assay on SkMel30; 66.4% in the assay with SkMel5; 119% in the assay on UACC257; 51.4% with UACC62; 45.8% with WM115; 167% in the assay with WM1716. In addition, the “cleaved PARP positive nuclei fraction” value in the assay with WM1745 worked out at 118%; in the assay on WM3526 it was 37.1%; with WM3619, 102%; in the assay on WM451Lu it was 169%.
Regarding `O=C(/C=C/c1cccnc1)NCCCCC1CCN(C(=O)c2ccccc2)CC1` + N#Cc1c(O)c2c(-c3ccc(-c4ccccc4O)cc3)csc2[nH]c1=O [A769662] (first compound 0.01 µM, partner dose 2 µM), the “cleaved PARP positive nuclei fraction” value with MZ2-MEL was found to be 704%; in the assay with MeWo it was 129%; in the assay with RPMI7951 it was 119%; in the assay on RVH-421, 108%; in the assay on SkMel28, 124%; with SkMel2, 893%. In addition, the “cleaved PARP positive nuclei fraction” value in the assay on SkMel30 was found to be 216%; in the assay on SkMel5, 76.3%; in the assay on UACC257, 128%; with UACC62 it was 108%; in the assay on WM115, 198%; with WM1716, 152%. The “cleaved PARP positive nuclei fraction” value in the assay on WM1745 came to 158%; in the assay with WM3526 it was 192%; with WM3619 it was 108%; in the assay on WM451Lu it was 191%.
`Cc1ccc(Nc2nccc(N(C)c3ccc4c(C)n(C)nc4c3)n2)cc1S(N)(=O)=O` [Pazopanib] + Cn1cncc1[C@@](N)(c1ccc(Cl)cc1)c1ccc2c(c1)c(-c1cccc(Cl)c1)cc(=O)n2C [tipifarnib] (first compound 0.4 µM, partner dose 0.01 µM): the “cleaved PARP positive nuclei fraction” value with MZ2-MEL was found to be 28.7%; in the assay on MeWo, 69.4%; in the assay on RPMI7951, 127%; in the assay on RVH-421, 45.9%; in the assay with SkMel28, 35.8%; with SkMel2, 59.2%. Further, the “cleaved PARP positive nuclei fraction” value worked out at 152% in the assay with SkMel30; 91.2% in the assay with SkMel5; 197% with UACC257; 272% with UACC62; 88.3% in the assay with WM115; 176% in the assay on WM1716. Also, the “cleaved PARP positive nuclei fraction” value in the assay on WM1745 is 99.3%; in the assay on WM3526 it was 80.9%; in the assay on WM3619, 97.2%; with WM451Lu it was 77.7%.
Turning to `Cc1ccc(Nc2nccc(N(C)c3ccc4c(C)n(C)nc4c3)n2)cc1S(N)(=O)=O` [Pazopanib] + CO[C@@H]1[C@H](N(C)C(=O)c2ccccc2)C[C@H]2O[C@]1(C)n1c3ccccc3c3c4c(c5c6ccccc6n2c5c31)C(=O)NC4 [Midostaurin] (first compound 0.4 µM, partner dose 0.08 µM), the “cleaved PARP positive nuclei fraction” value was 43.1% with MZ2-MEL; 28.3% with MeWo; 62.1% with RPMI7951; 55.1% with RVH-421; 56.1% in the assay with SkMel28; 94.2% in the assay with SkMel2. Also, the “cleaved PARP positive nuclei fraction” value in the assay on SkMel30 worked out at 97.5%; in the assay with SkMel5, 331%; in the assay on UACC257 it was 400%; in the assay with UACC62, 26.4%; with WM115 it was 159%; in the assay with WM1716, 159%. The “cleaved PARP positive nuclei fraction” value in the assay with WM1745 stood at 143%; in the assay on WM3526, 78%; in the assay on WM3619 it was 100%; in the assay on WM451Lu, 94.6%.
In the case of `CC[C@]1(O)C[C@H]2CN(CCc3c([nH]c4ccccc34)[C@@](C(=O)OC)(c3cc4c(cc3OC)N(C=O)[C@H]3[C@@](O)(C(=O)OC)[C@H](OC(C)=O)[C@]5(CC)C=CCN6CC[C@]43[C@@H]65)C2)C1` [vincristine] + O=C(CCCCCCC(=O)Nc1ccccc1)NO [vorinostat] (first compound 0.0001 µM, partner dose 0.08 µM), the “cleaved PARP positive nuclei fraction” value in the assay with MZ2-MEL amounted to 158%; in the assay on MeWo it was 50%; in the assay on RPMI7951, 116%; in the assay with RVH-421, 40.6%; in the assay on SkMel28, 105%; in the assay on SkMel2 it was 98%. Besides, the “cleaved PARP positive nuclei fraction” value in the assay with SkMel30 amounted to 80.7%; in the assay with SkMel5, 70.9%; in the assay on UACC257, 216%; with UACC62, 83.4%; in the assay on WM115 it was 234%; with WM1716 it was 180%. Besides, the “cleaved PARP positive nuclei fraction” value in the assay on WM1745 came out at 84.9%; in the assay with WM3526, 59%; in the assay on WM3619, 140%; in the assay with WM451Lu, 106%.
Consider `O=C(/C=C/c1cccnc1)NCCCCC1CCN(C(=O)c2ccccc2)CC1` + COc1cc2c(Oc3ccc4[nH]c(C)cc4c3F)ncnc2cc1OCCCN1CCCC1 [cediranib] (first compound 0.01 µM, partner dose 0.4 µM), for which the “cleaved PARP positive nuclei fraction” value in the assay on MZ2-MEL was 494%; in the assay with MeWo it was 143%; with RPMI7951 it was 213%; in the assay on RVH-421 it was 220%; in the assay with SkMel28, 64.1%; in the assay with SkMel2, 466%. For the same molecule, the “cleaved PARP positive nuclei fraction” value in the assay on SkMel30 was 64.5%; with SkMel5, 35.2%; with UACC257, 66.3%; in the assay on UACC62, 33%; in the assay on WM115 it was 87.4%; in the assay with WM1716, 98.3%. Besides, the “cleaved PARP positive nuclei fraction” value with WM1745 was determined as 95%; in the assay with WM3526, 120%; in the assay with WM3619, 101%; in the assay with WM451Lu it was 211%.
Consider `O=C(/C=C/c1cccnc1)NCCCCC1CCN(C(=O)c2ccccc2)CC1` + Cn1cc(/C=C2\C(=O)Nc3cccnc32)c2ccccc21 [GW441756] (first compound 0.01 µM, partner dose 0.4 µM), for which the “cleaved PARP positive nuclei fraction” value in the assay with MZ2-MEL was 734%; with MeWo it was 55.2%; in the assay on RPMI7951, 45.1%; in the assay with RVH-421, 96.8%; in the assay with SkMel28, 116%; in the assay with SkMel2, 497%. The “cleaved PARP positive nuclei fraction” value with SkMel30 stood at 34.2%; in the assay on SkMel5 it was 179%; in the assay with UACC257 it was 98.5%; in the assay with UACC62, 113%; in the assay on WM115 it was 124%; in the assay with WM1716 it was 86.6%. In addition, the “cleaved PARP positive nuclei fraction” value was determined as 99.9% in the assay with WM1745, 143% in the assay with WM3526, 101% with WM3619 and 33.3% in the assay with WM451Lu.
In the case of `N#CC[C@H](C1CCCC1)n1cc(-c2ncnc3[nH]ccc23)cn1` [ruxolitinib] + COc1cc(Nc2ncc(F)c(Nc3ccc4c(n3)NC(=O)C(C)(C)O4)n2)cc(OC)c1OC [Tamatinib] (first compound 1 µM, partner dose 0.4 µM), the “cleaved PARP positive nuclei fraction” value with MZ2-MEL stood at 114%; in the assay with MeWo it was 164%; with RPMI7951, 51.2%; in the assay with RVH-421, 55.6%; in the assay on SkMel28, 62.7%; in the assay with SkMel2, 70.2%. For the same molecule, the “cleaved PARP positive nuclei fraction” value with SkMel30 amounted to 212%; in the assay on SkMel5, 79%; with UACC257 it was 199%; with UACC62, 137%; in the assay with WM115 it was 84.6%; in the assay with WM1716 it was 135%. The “cleaved PARP positive nuclei fraction” value in the assay with WM1745 worked out at 142%; with WM3526, 60.4%; in the assay on WM3619 it was 109%; with WM451Lu, 80.6%.
Take `O=C(Nc1cc(C(F)(F)F)cc(C(F)(F)F)c1)c1cc(Cl)ccc1O` + O=C1NC(=O)/C(=C/c2ccc(-c3ccc(F)cc3O)o2)S1 [AS252424] (first compound 0.016 µM, partner dose 1 µM): the “cleaved PARP positive nuclei fraction” value is 116% with MZ2-MEL; 85.5% in the assay with MeWo; 67.7% in the assay with RPMI7951; 97.2% in the assay with RVH-421; 100% in the assay with SkMel28; 21% in the assay with SkMel2. Besides, the “cleaved PARP positive nuclei fraction” value in the assay with SkMel30 came to 43.7%; in the assay with SkMel5 it was 144%; in the assay on UACC257, 63.2%; in the assay on UACC62, 339%; in the assay on WM115, 130%; in the assay on WM1716, 159%. The “cleaved PARP positive nuclei fraction” value with WM1745 amounted to 80.3%; in the assay on WM3526 it was 78.3%; with WM3619, 92.9%; with WM451Lu, 80%.

(Values after the supplement of paper PMC4604168 (melanoma cell lines).)
